Measured values taken from article PMC9776765.
No constants are given. Whether binding was seen depends on the method and setting. For some of these results: Binding seen in cells or lysates may run through a third protein. Some results given as binding are weak or reduced against the parent protein; the word gives no strength. For some of these results: Where a sequence is shown, tags or fusion partners need not be part of it.

Sequences of proteins named here, by UniProt entry; tags and fusion partners are left off. A change or cut given only in a name is not applied to a line headed by its entry. A line that says so, or that is headed by a name, gives the form on record, which may keep a tag or linker. Residues count along the entry.
UniProt P16791: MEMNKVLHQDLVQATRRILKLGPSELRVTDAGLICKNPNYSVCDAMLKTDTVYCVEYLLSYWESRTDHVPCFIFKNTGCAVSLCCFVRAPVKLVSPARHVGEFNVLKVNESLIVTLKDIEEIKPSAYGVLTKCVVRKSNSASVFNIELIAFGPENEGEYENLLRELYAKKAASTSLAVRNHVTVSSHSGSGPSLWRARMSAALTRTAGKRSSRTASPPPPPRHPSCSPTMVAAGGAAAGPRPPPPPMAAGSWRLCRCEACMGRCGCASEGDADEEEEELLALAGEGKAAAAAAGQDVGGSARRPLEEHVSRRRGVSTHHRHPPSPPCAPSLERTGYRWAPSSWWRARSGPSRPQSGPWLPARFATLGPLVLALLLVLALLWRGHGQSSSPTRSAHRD
pUL50(1–358)-HA (HCMV (strain AD169)): residues 1-358 of P16791
UniProt P16794: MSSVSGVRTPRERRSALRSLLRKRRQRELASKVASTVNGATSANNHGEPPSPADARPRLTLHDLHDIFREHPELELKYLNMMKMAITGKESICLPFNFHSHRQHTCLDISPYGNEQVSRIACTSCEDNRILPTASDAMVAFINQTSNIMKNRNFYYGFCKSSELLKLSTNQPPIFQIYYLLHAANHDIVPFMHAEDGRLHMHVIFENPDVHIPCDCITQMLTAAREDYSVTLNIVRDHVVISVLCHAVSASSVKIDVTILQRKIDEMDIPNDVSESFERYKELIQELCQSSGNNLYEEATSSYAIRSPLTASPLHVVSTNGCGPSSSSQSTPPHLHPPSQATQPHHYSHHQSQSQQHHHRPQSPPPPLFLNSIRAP
truncated pUL53, Flag-tagged (wild-type): residues 1-87 of P16794

Legend:
[1] = biological target: GAL4 BD::pUL50(1–358)-co (HCMV) (UniProt P16791); experiment: two-hybrid
[2] = biological target: truncated pUL53, Flag-tagged (wild-type) (HCMV) (UniProt P16794); experiment: co-IP; 293T cells transiently cotransfected, lysed three d p.t.; Flag-tagged hook constructs immunoprecipitated with mAb-Flag (Dynabeads); HA-tagged groove proteins lacking their TMD detected by Western blot; performed once
[3] = biological target: pUL50-HA, full-length (HCMV) (UniProt P16791); experiment: co-IP; 293T cells transiently cotransfected, lysed three d p.t.; HA-tagged groove proteins (full-length or without TMD) immunoprecipitated with mAb-HA (Dynabeads); Flag-tagged hook proteins detected by Western blot; performed three times
[4] = biological target: pUL50(1–358)-HA (HCMV (strain AD169)) (UniProt P16791); experiment: as above
[5] = biological target: GAL4 BD::BFRF1(1–315) (EBV (strain B95-8)) (UniProt P03185); experiment: two-hybrid
[6] = biological target: T1, HA-BFRF1, full-length (EBV) (UniProt P03185); experiment: co-IP; 293T cells transiently cotransfected, lysed three d p.t.; HA-tagged groove proteins (full-length or without TMD) immunoprecipitated with mAb-HA (Dynabeads); Flag-tagged hook proteins detected by Western blot; performed three times
T1 sequence: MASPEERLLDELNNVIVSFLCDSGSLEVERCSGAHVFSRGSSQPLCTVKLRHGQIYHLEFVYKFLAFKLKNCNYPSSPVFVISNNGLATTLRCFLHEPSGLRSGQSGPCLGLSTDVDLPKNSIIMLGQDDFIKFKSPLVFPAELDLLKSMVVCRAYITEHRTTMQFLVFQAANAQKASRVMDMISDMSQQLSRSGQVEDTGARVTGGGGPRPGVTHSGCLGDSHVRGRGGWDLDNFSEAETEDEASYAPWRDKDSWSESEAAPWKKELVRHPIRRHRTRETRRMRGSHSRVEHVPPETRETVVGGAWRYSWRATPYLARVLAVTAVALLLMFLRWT

[7] = biological target: HA-BFRF1(1–315) (EBV (strain B95-8)) (UniProt P03185); experiment: as above

GAL4 AD::pUL53-co (from UniProt P16794 1-376)
binding [1]: binds

pUL50(1–358)-HA (from UniProt P16791 1-358) (domain or fragment)
binding [2]: binds

pUL53-Flag (from UniProt P16794 1-376)
binding [3]: binds
binding [4]: binds

B1: GAL4 AD::BFLF2 (protein, UniProt P0CK47 1-318)
chain: MAPVTPDAVNARQQRPADPALRRLMHPHHRNYTASKASAHSVKSVSRCGKSRSELGRMERVGSVARSICSRHTRHGVDRSHFSLRDFFRGISANFELGKDFLREMNTPIHVSEAVFLPLSLCTLSPGRCLRLSPFGHSLTLGSHCEICINRSQVHVPQEFSSTQLSFFNNVHKIIPNKTFYVSLLSSSPSAVKAGLSQPSLLYAYLVTGHFCGTICPIFSTNGKGRLIMHLLLQGTSLHIPETCLKLLCENIGPTYELAVDLVGDAFCIKVSPRDTVYEKAVNVDEDAIYEAIKDLECGDELRLQIINYTQLILENKQ
binding [5]: binds

B2: Flag-BFLF2 (protein, UniProt P0CK47 1-318)
chain: MAPVTPDAVNARQQRPADPALRRLMHPHHRNYTASKASAHSVKSVSRCGKSRSELGRMERVGSVARSICSRHTRHGVDRSHFSLRDFFRGISANFELGKDFLREMNTPIHVSEAVFLPLSLCTLSPGRCLRLSPFGHSLTLGSHCEICINRSQVHVPQEFSSTQLSFFNNVHKIIPNKTFYVSLLSSSPSAVKAGLSQPSLLYAYLVTGHFCGTICPIFSTNGKGRLIMHLLLQGTSLHIPETCLKLLCENIGPTYELAVDLVGDAFCIKVSPRDTVYEKAVNVDEDAIYEAIKDLECGDELRLQIINYTQLILENKQ
binding [6]: binds
binding [7]: binds
